## Results of single-concentration screens

Amino acid sequences for entries named in this document (tags omitted). Residues count along the entry.
UniProt Q4DA54, 1-478: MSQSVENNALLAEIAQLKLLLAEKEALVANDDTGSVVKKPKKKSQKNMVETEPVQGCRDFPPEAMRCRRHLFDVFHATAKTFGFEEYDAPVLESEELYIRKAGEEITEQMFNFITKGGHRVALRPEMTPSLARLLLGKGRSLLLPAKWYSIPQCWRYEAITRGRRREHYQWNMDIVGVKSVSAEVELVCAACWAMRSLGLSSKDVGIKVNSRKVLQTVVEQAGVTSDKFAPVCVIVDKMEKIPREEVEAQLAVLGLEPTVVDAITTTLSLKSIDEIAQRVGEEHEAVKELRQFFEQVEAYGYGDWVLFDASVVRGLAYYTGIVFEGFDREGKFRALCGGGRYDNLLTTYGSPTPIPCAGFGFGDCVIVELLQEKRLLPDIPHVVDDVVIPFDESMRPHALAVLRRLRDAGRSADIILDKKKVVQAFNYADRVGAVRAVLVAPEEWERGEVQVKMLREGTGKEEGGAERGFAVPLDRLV
UniProt P9WNZ1, whole entry: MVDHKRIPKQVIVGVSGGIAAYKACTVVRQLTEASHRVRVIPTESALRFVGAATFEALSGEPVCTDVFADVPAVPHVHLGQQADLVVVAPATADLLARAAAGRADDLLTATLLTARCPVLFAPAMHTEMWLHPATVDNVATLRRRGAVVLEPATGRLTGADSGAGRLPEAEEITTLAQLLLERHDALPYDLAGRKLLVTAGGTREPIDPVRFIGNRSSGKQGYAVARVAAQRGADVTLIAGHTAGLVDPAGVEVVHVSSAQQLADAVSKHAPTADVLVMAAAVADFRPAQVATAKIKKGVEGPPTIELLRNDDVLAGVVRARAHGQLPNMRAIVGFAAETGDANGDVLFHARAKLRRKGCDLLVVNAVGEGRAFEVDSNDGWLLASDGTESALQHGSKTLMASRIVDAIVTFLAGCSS
UniProt P9WPC5, whole entry: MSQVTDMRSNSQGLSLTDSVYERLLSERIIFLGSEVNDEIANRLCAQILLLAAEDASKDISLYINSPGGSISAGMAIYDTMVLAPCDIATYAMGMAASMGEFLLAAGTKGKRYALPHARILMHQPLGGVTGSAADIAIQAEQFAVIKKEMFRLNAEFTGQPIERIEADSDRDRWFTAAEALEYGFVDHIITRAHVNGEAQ
UniProt P9WPC3, whole entry partner: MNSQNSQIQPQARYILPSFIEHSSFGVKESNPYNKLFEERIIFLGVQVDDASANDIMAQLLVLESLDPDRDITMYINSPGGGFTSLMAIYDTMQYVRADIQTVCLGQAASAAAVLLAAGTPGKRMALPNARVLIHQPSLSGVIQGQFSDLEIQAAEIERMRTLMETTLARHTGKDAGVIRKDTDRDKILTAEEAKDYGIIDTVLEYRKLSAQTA
UniProt Q8IDJ8, 1-583: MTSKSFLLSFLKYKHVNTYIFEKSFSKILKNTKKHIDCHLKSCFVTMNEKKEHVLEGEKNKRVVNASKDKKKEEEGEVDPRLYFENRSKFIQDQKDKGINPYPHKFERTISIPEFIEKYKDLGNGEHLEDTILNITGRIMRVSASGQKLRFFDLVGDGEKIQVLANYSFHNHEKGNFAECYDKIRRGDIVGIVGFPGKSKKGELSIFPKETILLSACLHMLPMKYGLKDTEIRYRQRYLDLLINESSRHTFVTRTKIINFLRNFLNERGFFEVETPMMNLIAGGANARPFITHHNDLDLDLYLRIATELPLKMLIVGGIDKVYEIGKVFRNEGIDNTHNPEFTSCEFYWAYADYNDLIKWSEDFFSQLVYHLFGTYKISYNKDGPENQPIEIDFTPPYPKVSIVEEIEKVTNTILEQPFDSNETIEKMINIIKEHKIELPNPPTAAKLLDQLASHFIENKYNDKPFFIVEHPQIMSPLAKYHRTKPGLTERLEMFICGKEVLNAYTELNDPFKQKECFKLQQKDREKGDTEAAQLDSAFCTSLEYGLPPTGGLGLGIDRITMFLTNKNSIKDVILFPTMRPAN

The values are deposited in ChEMBL (CHEMBL3988442, “University of Dundee, Small-Polar-MMV Screening Library” (2021)).

Leishmania in macrophages: 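Cell assay of Leishmania donovani living inside macrophages; the read-out is not stated. Compounds at 30 µM. Higher reads as stronger inhibition (inferred: compounds with an IC50 in retests scored well above the rest). About 69,000 compounds were tested under these conditions; 1.5% (about 1,000) showed 50% or more at least once.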
TcHisRS: 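Histidine-tRNA ligase, Trypanosoma cruzi CL Brener (UniProt Q4DA54). Enzyme assay of histidyl-tRNA synthetase; the read-out is not stated. Tested at 30 µM. Higher reads as stronger inhibition (inferred: compounds with an IC50 in retests scored well above the rest). Of about 69,000 compounds tested this way, about 31 (0.045%) reached 50% or more in at least one test.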
CoaBC: 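Enzyme assay of CoaBC with a phosphate dye (Biomol Green) read at 650 nm. Target: Coenzyme A biosynthesis protein CoaBC, Mycobacterium tuberculosis (UniProt P9WNZ1). Concentration: 30 µM. Higher reads as stronger inhibition, judged from the few compounds that gave an IC50. Most strong results did not repeat in a second test. About 67,000 compounds were tested under these conditions; 0.06% (about 40) showed 50% or more at least once.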
ClpP1P2: 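Protease assay of ClpP1P2, read by the AMC dye that it sets free. Target: ClpP1P2, Mycobacterium tuberculosis (UniProt P9WPC5 and UniProt P9WPC3). Compounds at 50 µM. Higher reads as stronger inhibition, judged from the few compounds that gave an IC50. Most other retested compounds had strongly negative values. Of about 69,000 compounds tested this way, about 10 (0.015%) reached 50% or more in at least one test.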
PfKRS1: 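Enzyme assay of the cytosolic lysyl-tRNA synthetase in 384-well plates, read by luminescence. Target: Lysine-tRNA ligase, Plasmodium falciparum 3D7 (UniProt Q8IDJ8). Tested at 30 µM. Direction is inferred from only a few compounds that gave an IC50; most scored high, so higher reads as stronger inhibition. Of about 69,000 compounds tested this way, about 49 (0.071%) reached 50% or more in at least one test.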

The filed quantity is “Percent Effect” (%).
The controls that fix the scale are not given in the record; negative values are as filed.
This is an unselected part of the compounds tested.

* Cc1nc(CN2CCCN(C(=O)CCc3ccco3)CC2)cs1 : Leishmania in macrophages: 22.26%; TcHisRS: 10.03%; CoaBC: 11.8%; ClpP1P2: 4.89%; PfKRS1: 0.3168%
* Cc1nc2cc(C(=O)N3C[C@@H](C(=O)O)[C@H](c4ccncc4)C3)ccc2[nH]1 : Leishmania in macrophages: 14.55%; TcHisRS: -6.667%; CoaBC: 1.681%; ClpP1P2: 6.235%; PfKRS1: -0.2749%
* O=C(NCCN1CCCC1)Nc1cc(C(=O)N2CCOCC2)ccc1Cl : Leishmania in macrophages: -12.06%; TcHisRS: 4.598%; CoaBC: 2%; ClpP1P2: -7.551%; PfKRS1: 3.198%
* COc1ccc(COCC(=O)NC2CCc3nc(C)cn3C2)cc1 (stereo not drawn) : Leishmania in macrophages: 10.56%; TcHisRS: 5%; CoaBC: -5.785%; ClpP1P2: 3.501%; PfKRS1: 7.708%
* c1cnc(N2CCC(OCCN3CCCCC3)C2)nc1 (stereo not drawn) : Leishmania in macrophages: 21.08%; TcHisRS: 1.149%; CoaBC: 8%; ClpP1P2: -2.508%; PfKRS1: -3.451%
* O=C(CCc1ccco1)Nc1cccc(S(=O)(=O)C(F)F)c1 : Leishmania in macrophages: -1.709%; TcHisRS: 8.046%; CoaBC: -0.8%; ClpP1P2: -1.33%; PfKRS1: 7.284%
* CNS(=O)(=O)c1ccc(CNC(=O)C2CN(C)CCO2)cc1 (stereo not drawn) : Leishmania in macrophages: 17.31%; TcHisRS: 11.67%; CoaBC: -21.01%; ClpP1P2: -5.264%; PfKRS1: 6.047%
* Cc1noc(NCc2ccc(F)cc2F)n1 : Leishmania in macrophages: 29.48%; TcHisRS: 1.538%; CoaBC: -0.9938%; ClpP1P2: -3.643%; PfKRS1: -0.4318%
* Cc1nc(CN2C(=O)CCC23CCN(Cc2cccn2C)CC3)cs1.O=C(O)C(F)(F)F.O=C(O)C(F)(F)F : Leishmania in macrophages: 2.496%
* CC1CCc2nc(NS(=O)(=O)c3cnn(C)c3)sc2C1 (stereo not drawn) : Leishmania in macrophages: 38.11%; TcHisRS: 12.12%; CoaBC: 4.04%; ClpP1P2: 5.762%; PfKRS1: 3.144%
* Nc1cc(-c2nccnc2N2CCCC2)c2cc[nH]c2n1 : Leishmania in macrophages: 25.12%; TcHisRS: 18.18%; CoaBC: 11.11%; ClpP1P2: 4.21%; PfKRS1: 3.661%
* CC(=O)c1cc(CC(=O)NCc2c(F)cccc2F)cs1 : Leishmania in macrophages: 3.167%; TcHisRS: 0.8333%; CoaBC: 4.051%; ClpP1P2: -11.42%; PfKRS1: -2.058%
* CCN(CC)C(=O)C1CCC2(CCNCC2)O1.Cl (stereo not drawn) : Leishmania in macrophages: 20.71%
* O=C(NCC1(Sc2ccccc2)CC1)c1c[nH]nn1 : Leishmania in macrophages: 2.442%; TcHisRS: 10.89%; CoaBC: 1.214%; ClpP1P2: -1.722%; PfKRS1: 4.056%
* O=C(O)C(F)(F)F.[H][C@@]12COC[C@@H](CC(=O)NCCOC)[C@]1([H])CN(CC1CCOCC1)C2 : Leishmania in macrophages: -11.82%
* CCS(=O)(=O)Nc1ccc2oc(C)c(C(=O)OC)c2c1 : Leishmania in macrophages: -18.27%; TcHisRS: 2.591%; CoaBC: 2.357%; ClpP1P2: 4.64%; PfKRS1: 3.777%
* CCc1ccc(NC(=O)CC2Cn3ncnc3NC2=O)cc1 (stereo not drawn) : Leishmania in macrophages: 3.036%; TcHisRS: 6.509%; CoaBC: -2.105%; ClpP1P2: 4.261%; PfKRS1: 1.821%
* CC(=O)N(C)Cc1cccc(NC(=O)N(C)Cc2nccs2)c1 : Leishmania in macrophages: -10.95%; TcHisRS: 12.71%; CoaBC: 7.767%; ClpP1P2: -15.27%; PfKRS1: 7.038%
* Cc1cc(CN2CCN(C(=O)NC(C)c3cccnc3)CC2)on1 (stereo not drawn) : Leishmania in macrophages: 15.25%; TcHisRS: 0.3802%; CoaBC: 4.255%; ClpP1P2: 11.4%; PfKRS1: 3.602%
* c1cnc2c(c1)cc([C@H]1CCCO1)n2CCN1CCCC1 : TcHisRS: 9.574%; CoaBC: 1.716%; ClpP1P2: 8.088%; PfKRS1: 7.446%
* CC(Cc1ccco1)NC(=O)Nc1ccc(N(C)C)nc1 (stereo not drawn) : Leishmania in macrophages: 32.34%; TcHisRS: 8.235%; CoaBC: 3.581%; ClpP1P2: -66.24%; PfKRS1: 1.828%
* CNS(=O)(=O)c1ccc(CNC(=O)N(C)C(C)COC)cc1 (stereo not drawn) : Leishmania in macrophages: -5.615%; TcHisRS: 0.6135%; CoaBC: 4.994%; ClpP1P2: 0.5661%; PfKRS1: 0.8079%
* O=c1[nH]c2c(-c3ccccn3)nsc2c(=O)n1C1CCCCC1 : Leishmania in macrophages: 36.08%; TcHisRS: 13%; CoaBC: 1.453%; ClpP1P2: -2.29%; PfKRS1: 3.376%
* O=C(c1cccnc1)N1CC(S(=O)(=O)c2ccc(Cl)cc2)C1 : Leishmania in macrophages: -22.95%; TcHisRS: 5%; CoaBC: -0.2421%; ClpP1P2: -8.468%; PfKRS1: 2.815%

Repeated from the top, 3 entries:

| compound | Leishmania in macrophages | TcHisRS | CoaBC | ClpP1P2 | PfKRS1 |
|---|---|---|---|---|---|
| `Cc1nc(CN2CCCN(C(=O)CCc3ccco3)CC2)cs1` | 22.26 | 10.03 | 11.8 | 4.89 | 0.3168 |
| `Cc1nc2cc(C(=O)N3C[C@@H](C(=O)O)[C@H](c4ccncc4)C3)ccc2[nH]1` | 14.55 | -6.667 | 1.681 | 6.235 | -0.2749 |
| `O=C(NCCN1CCCC1)Nc1cc(C(=O)N2CCOCC2)ccc1Cl` | -12.06 | 4.598 | 2 | -7.551 | 3.198 |